Results: paper PMC7806742
No constants are given. Whether binding was seen depends on the method and setting. In cells and extracts the contact can be indirect. Some binding calls cover weakened binding; strength is not graded here. Where a sequence is shown, tags or fusion partners need not be part of it.

Chains of the proteins cited; added tags and fusions are not shown.
UniProt Q61312: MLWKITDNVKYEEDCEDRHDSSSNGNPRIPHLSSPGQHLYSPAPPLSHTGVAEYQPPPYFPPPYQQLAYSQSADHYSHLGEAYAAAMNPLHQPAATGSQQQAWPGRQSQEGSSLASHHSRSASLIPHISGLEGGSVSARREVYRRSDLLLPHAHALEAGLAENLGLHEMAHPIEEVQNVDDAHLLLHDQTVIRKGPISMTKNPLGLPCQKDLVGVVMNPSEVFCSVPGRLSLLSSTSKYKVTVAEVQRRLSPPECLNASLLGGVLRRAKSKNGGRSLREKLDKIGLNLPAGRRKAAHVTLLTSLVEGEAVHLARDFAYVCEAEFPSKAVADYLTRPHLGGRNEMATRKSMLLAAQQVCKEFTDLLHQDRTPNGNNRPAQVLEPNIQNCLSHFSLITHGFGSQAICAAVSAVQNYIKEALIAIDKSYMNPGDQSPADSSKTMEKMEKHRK

T1: Histone demethylase JMJD2B/KDM4B (mouse (endogenous in TSC)) (UniProt Q91VY5)
T1 sequence: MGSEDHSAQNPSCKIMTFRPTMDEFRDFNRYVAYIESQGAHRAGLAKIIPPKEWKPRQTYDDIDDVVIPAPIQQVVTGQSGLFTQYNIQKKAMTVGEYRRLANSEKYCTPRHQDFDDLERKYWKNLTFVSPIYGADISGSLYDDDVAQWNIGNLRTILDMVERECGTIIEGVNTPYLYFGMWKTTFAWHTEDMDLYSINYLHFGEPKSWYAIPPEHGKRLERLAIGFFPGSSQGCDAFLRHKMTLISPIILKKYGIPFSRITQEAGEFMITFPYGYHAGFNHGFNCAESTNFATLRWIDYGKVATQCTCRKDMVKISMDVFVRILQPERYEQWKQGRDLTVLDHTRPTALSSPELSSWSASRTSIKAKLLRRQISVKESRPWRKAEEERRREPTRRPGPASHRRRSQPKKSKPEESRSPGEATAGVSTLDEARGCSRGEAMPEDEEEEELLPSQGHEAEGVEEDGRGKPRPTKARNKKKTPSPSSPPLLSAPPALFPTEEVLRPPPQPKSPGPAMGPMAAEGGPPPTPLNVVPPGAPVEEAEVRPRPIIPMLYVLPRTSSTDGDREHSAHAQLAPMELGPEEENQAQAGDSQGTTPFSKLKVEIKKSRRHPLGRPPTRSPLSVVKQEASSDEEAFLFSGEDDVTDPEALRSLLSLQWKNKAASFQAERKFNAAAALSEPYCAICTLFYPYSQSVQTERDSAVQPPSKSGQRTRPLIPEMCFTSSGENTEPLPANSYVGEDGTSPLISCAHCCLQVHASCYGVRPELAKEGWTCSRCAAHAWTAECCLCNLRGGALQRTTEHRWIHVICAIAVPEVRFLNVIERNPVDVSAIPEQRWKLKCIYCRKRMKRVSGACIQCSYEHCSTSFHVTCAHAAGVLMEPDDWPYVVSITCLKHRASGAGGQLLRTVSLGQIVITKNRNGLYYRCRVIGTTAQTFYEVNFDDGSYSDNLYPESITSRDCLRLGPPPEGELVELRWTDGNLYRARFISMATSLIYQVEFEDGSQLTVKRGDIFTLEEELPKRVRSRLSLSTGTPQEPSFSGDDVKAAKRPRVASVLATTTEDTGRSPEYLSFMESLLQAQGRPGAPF

B1: Histone demethylase JMJD2B/KDM4B (protein, UniProt Q91VY5 1-1086)
chain: T1 sequence
B2: EOMES (protein, UniProt O54839 1-707)
chain: MQLGEQLLVSSVNLPGAHFYSLESARGGGGGGGGGGGGGGGSVSLLPGAAPSPQRLDLDKASKKFPGSLPCQAGSAEPAGAGAGAPAAMLSDADAGDTFGSTSAVAKPGPPDGRKGSPCAEEELPSAATAAATARYSMDSLSSERYYLPSPGPQGSELAAPCSLFQYPAAAGAAHGPVYPASNGARYPYGSMLPPGGFPAAVCPPARAQFGPAAGSGSGAGSSGGGAGGPGAYPYGQGSPLYGPYAGTSAAGSCGGLGGLGVPGSGFRAHVYLCNRPLWLKFHRHQTEMIITKQGRRMFPFLSFNINGLNPTAHYNVFVEVVLADPNHWRFQGGKWVTCGKADNNMQGNKMYVHPESPNTGSHWMRQEISFGKLKLTNNKGANNNNTQMIVLQSLHKYQPRLHIVEVTEDGVEDLNEPSKTQTFTFSETQFIAVTAYQNTDITQLKIDHNPFAKGFRDNYDSMYTASENDRLTPSPTDSPRSHQIVPGGRYGVQNFFPEPFVNTLPQARYYNGERTVPQTNGLLSPQQSEEVANPPQRWLVTPVQQPVTNKLDIGSYESEYTSSTLLPYGIKSLPLQTSHALGYYPDPTFPAMAGWGGRGAYQRKMAAGLPWTSRMSPPVFPEDQLAKEKVKEEISSSWIETPPSIKSLDSSDSGVYNSACKRKRLSPSTPSNGNSPPIKCEDINTEEYSKDTSKGMGAYYAFYTSP

Experiments:
[1] = target: T1, Histone demethylase JMJD2B/KDM4B (mouse (endogenous in TSC)); test: co-IP; IP with anti-JMJD2B antibody on Dynabeads Protein A/G from 1 mg DNase-treated TSC lysate (50 mM Tris-HCl pH 7.4, 150 mM NaCl, 1 mM EDTA, 1% NP-40), 4 °C overnight; Western blot with anti-LSD1, anti-TFAP2C or anti-EOMES; wild-type, Cas9 control and CRISPR Jmjd2b knockdown TSCs
[2] = target: AP-2 family transcription factor TFAP2C (mouse (endogenous in TSC)) (UniProt Q61312); test: co-IP; IP with anti-TFAP2C or anti-LSD1 antibody on Dynabeads Protein A/G from 1 mg DNase-treated TSC lysate (50 mM Tris-HCl pH 7.4, 150 mM NaCl, 1 mM EDTA, 1% NP-40), 4 °C overnight; Western blot for JMJD2B

| Molecule | binding [1] | binding [2] |
| --- | --- | --- |
| AP-2 family transcription factor TFAP2C (from UniProt Q61312 1-449) | binds | – |
| B1 | – | binds |
| B2 | no binding | – |
